Experiment: soluble on expression in E. coli; label from the status in PepcDB or PDB records

Sequence	soluble on expression in E. coli
QEERNQQQDDIEELETKAVGMSNDGRFLKFDIEIGRGSFKTVYKGLDTETTVEVAWCELQDRKLTKSERQRFKEEAEMLKGLQHPNIVRFYDSWESTVKGKKCIVLVTELMTSGTLKTYLKRFKVMKIKVLRSWCRQILKGLQFLHTRTPPIIHRDLKCDNIFITGPTGSVKIGDLGLATLKRASFAKAVIGTPEFMAPEMYEEKYDESVDVYAFGMCMLEMATSEYPYSECQNAAQIYRRVTSGVKPASFDKVAIPEVKEIIEGCIRQNKDERYSIKDLLNHAFFQEET	soluble
MALLLASAINHTAHPAGLRSHPNNESFSRHHLCSSPQNISKRRSNLSFRPRAQTISSESAGIHRLSPWEIPRRDWFPPSFLFGAATSAYQIEGAWNEDGKGPSTWDHFCHNFPEWIVDRSNGDVAADSYHMYAEDVRLLKEMGMDAYRFSISWPRILPKGTLAGGINEKGVEYYNKLIDLLLENGIEPYITIFHWDTPQALVEAYGGFLDERIIKDYTDFAKVCFEKFGKTVKNWLTFNDPETFCSVSYGTGVLAPGRCSPGVSCAVPTGNSLSEPYIVAHNLLRAHAETVDIYNKYHKGADGRIGLALNVFGRVPYTNTFLDQQAQERSMDKCLGWFLEPVVRGDYPFSMRVSARDRVPYFKEKEQEKLVGSYDMIGINYYTSTFSKHIDLSPNNSPVLNTDDAYASQETKGPDGNAIGPPTGNAWINMYPKGLHDILMTMKNKYGNPPMYITENGMGDIDKGDLPKPVALEDHTRLDYIQRHLSVLKQSIDLGADVRGYFAWSLLDNFEWSSGYTERFGIVYVDRENGCERTMKRSARWLQEFNGAAKKVENNKILTPAGQLN	soluble
MTTIDTLATCTQQNRDAVYTLLRRYFTANRTLLLQSDLREGLLQTEQDCGQSDMLRAFVFRLQEGIFSSPWAYLALRPEIAKWEFMRIHQEHLIPEKLTISEFLKFKETVVKGEATESVLEVDFGPFNRGFPRLKESRSIGQGVIFLNRKLSSEMFSRIEAGHTSLLHFLGVHAIEGQQLMFSNNSHDIHAVRNQLRQALEMLETLDGTTPWIELAPKMNQLGFAPGWGHNANRVAETMNMLMDILEAPSPSALEEFLACIPMISRLLILSPHGYFGQDNVLGLPDTGGQVVYILDQVRALEKEMHDRLQLQGVQVEPKILIVTRLIPDAGDTTCNQRLEKVSGCTNTWILRVPFRKHNGEIIPHWISRFEIWPHLEIFAGDVEREALAELGGHPDLIIGNYSDGNLVATLLSRRLGVTQCNIAHALEKTKYLHSDIYWQENEDKYHFSCQYTADLLAMNSADFIVTSTYQEIAGTREAEGQYESYQAFSMPDLYRVIHGIDLFDPKFNIVSPGANADIYFPYSDPNRRLHSLIPEIESLIFDDATNLPARGYLQDPLEHHHHHH	not soluble
MAHHHHHHMMPTMHAISSLCLLPTPFPPALVRLLLPPFFGNSKKTHEHTPTDPAARIHHGHTAAVSSLPPTFSAFRRHTTVLILRSRPSRTHIRIDTNERVGSTSASVHSAYPAPLSPLLASQPAPHMSSPAPSTQAFSLKTRQPIPDEDALLTEEDRILKQATKGEDCTTRRRACKNCVCGRAELERKLEAEVLTMPPGGCGNCSKGDAFRCAGCPFLGQPAFDATEDGKVKLNLTDDV	not soluble
AHHHHHHGSGIVRAHLRIYGRVQGVGFRWSMQREAKKLGVNGWVRNLPDGSVEAVLEGEEERVEALIGWAHQGPPLARVTRVEVTWEEPKGEKGFRIIG	not soluble
SEEEQKKKALERSMYVLSELVETEKMYVDDLGQIVEGYMATMAAQGVPESLRGRDRIVFGNIQQIYEWHRDYFLQELQRCLKDPDWLAQLFIKHERRLHMYVVYCQNKPKSEHVVSEFGDSYFEELRQQLGHRLQLNDLLIKPVQRIMKYQLLLKDFLKYYNRAGMDTADLEQAVEVMCFVPKRCNDMMTLGRLRGFEGKLTAQGKLLGQDTFWVTEPEAGGLLSSRGRERRVFLFEQIIIFSEALGGGVRGGTQPGYVYKNSIKVSCLGLEGNLQGDPCRFALTSRGPEGGIQRYVLQAADPAISQAWIKHVAQILESQRDFLNALQSPIEYQRRESQTNSLGRPRGPGVGSP	soluble
MAVKVNKEFCSFCGKRQDEVLILIAGPNNTYICDECVEKCYQIVRENKKTSYNFELKDIPKPEQIKKILDEYVIGQERAKKILSVAVYNHYKRIKAKEAGLSLDDVELEKSNILLIGPTGSGKTLLARTLAKILNVPFAIADATSLTEAGYVGEDVENVLVRLLQACDYDVKAAQKGIVYIDEIDKIAKKSGINPSITRDVSGEGVQQALLKIVEGSVVNVPPQGGRKHPHQEFIQVDTTDILFICGGAFVGLEDIIKQRLGKSRVGFEAEIKKVDKEQDLLELVEPDDLIRFGMIPEFIGRFPVIATLRELTEDELVRILVEPKNALVKQYQKLFELEGVKLTFTEKALREIAKEAIRRKTGARGLRAIMEDIMADIMFEVPSLPGVKEVIIDENVVKNKEKPKLIFEQAV	soluble
AKQQRKELAGGDFTSPDASASSCGKEVPEDSNNFDGSHVYMHSDYNVYRVRSRYNSDWGETGTEQDEEEDSDENSYYQPDMEYSEIVGLPEEEEIPANRKIKFSSAPIKVFNTYSNEDYDRRNDEVDPVAASAEYELEKRVEKLELFPVELEKDEDGLGISIIGMGVGADAGLEKLGIFVKTVTEGGAAQRDGRIQVNDQIVEVDGISLVGVTQNFAATVLRNTKGNVRFVIGREKPGQVSEVAQLISQTLEQERRQRELLEQHYAQYDADDDETGEYATDEEEDEVGPVLPGSDMAIEVFELPENEDMFSPSELDTSKLSHKFKELQIKHAVTEAEIQKLKTKLQAAENEKVRWELEKTQLQQNIEENKERMLKLESYWIEAQTLCHTVNEHLKETQSQYQALEKKYNKAKKLIKDFQQKELDFIKRQEAERKKIEDLEKAHLVEVQGLQVRIRDLEAEVFRLLKQNGTQVNNNNNIFERRTSLGEVSKGDTMENLDGKQTSCQDGLSQDLNEAVPETERLDSKALKTRAQLSVKNRRQRPSRTRLYDSVSSTDGEDSLERKNFTFNDDFSPSSTSSADLSGLGAEPKTPGLSQSLALSSDESLDMIDDEILDDGQSPKHSQCQNRAVQEWSVQQVSHWLMSLNLEQYVSEFSAQNITGEQLLQLDGNKLKALGMTASQDRAVVKKKLKEMKMSLEKARKAQEKMEKQREKLRRKEQEQMQRKSKKTEKMTSTTAEGAGEQ	soluble
MVICSGPSMHPTIHDGDLVLAERFSIRNKNVQVGDIVGCVNPQKPKELLCKRIAAKEGDPVTSHLLPSGRVPIGHVFLRGDNGPVSTDSRHFGPVPEALVQIRLSLRIWPPERAGWISDHWFWDKTQKLLKMADRMTQLQDMINEMAGLMTNAIGVLQATAPPCEFGAISQELEDEPNCAIFAAGIAKAAKNIEILIDSFPIEAGNQEAEVEEKMIKNDEKQREKVNELVGLVGDSNRLVGVVQKKLAEISKTQMSSRPSE	not soluble
MGHHHHHHSHMASPSLERPEKGAGKSEFRNQKPKPENQDESELLTVPDGWKEPAFSKEDNPRGLLEESSFATLFPKYREAYLKECWPLVQKALNEHHVNATLDLIEGSMTVCTTKKTFDPYIIIRARDLIKLLARSVSFEQAVRILQDDVACDIIKIGSLVRNKERFVKRRQRLIGPKGSTLKALELLTNCYIMVQGNTVSAIGPFSGLKEVRKVVLDTMKNIHPIYNIKSLMIKRELAKDSELRSQSWERFLPQFKHKNVNKRKEPKKKTVKKDIRHSHHHNQKVRSIKNWLVVNTF	not soluble
MPVMGGQQRITLGNLHFQQDPNDPQKWIITNEGPPVAGPSAPARKPNQIQHRQMIPQMNEDGMMNMGNDYGDINGQGLGEAPKRCACTCPNCLQQNNRQGDGKSRIHICHLCNKTYGKTSHLRAHLRGHAGNKPFACDWQHCNKKFTRSDELQRHRRTHTGEKRFACNHCGKKFMRSDHLTKHERTHQSNRINNINQQTLRLS	not soluble
MALETVLVAGRPGDEGNGQQLASTAIDIAKPADARVVVGQIFTDEEYETSKTSLGFDDASEVSPEQIAAQHGLFKSIVSQLDSAEVEYELRTATGPHANSIMDLAADVDLIIVGGANRSPTGKAVFGSTTQDVLVQAPCPVVFVRRE	not soluble
MSLVRPSQRREMARWAVANKAMSIRHACQAFEVSQTCYRYQAKASEENVQIADWLVRLTTTYRDWGFGLCFLHLRNVKGFGWNHKRVYRIYRELELNLRIKPKKRLVRERPEPLSVPEAINQVWSMDFMHDQLADGRSFRLFNVLDDFNREGLGIEVDLSLPSARVIRSLDQIIDWRGKPNAIRCDNGPEYISGALLAWAQQRGIRIEHIQPGKPQQNAYVERYNRTVRYAWLATTLFDTIEQVQDKATRWLWTYNHERPNMALGGITPAMKLAMAEGHHHHHH	not soluble
SNADVTPLSLGIETLGGIMTKLITRNTTIPTKKSQVFSTAADGQTQVQIKVFQGEREMATSNKLLGQFSLVGIPPAPRGVPQVEVTFDIDANGIVNVSARDRGTGKEQQIVIQSSGGLSKDQIENMIKEAEKNAAEDAKRKELVEVINQAE	soluble
MLESGVLKEGALEKRSDGLLQLWKKKRCVLTEDGLVLHPHKHHHQHQHQQQHDTGCKVKELHFANMKTVDCVERKGKYVYFTVVMSEGREIDFRCLQDEGWNAEITLRMVQYKNRQAILAVKSSRQKQQQLLVVSAQKMVRSAQ	not soluble
MADFGISAGQFVAVVWDKSSPVEALKGLVDKLQALTGNEGRVSVENIKQLLQSAHKESSFDIILSGLVPGSTTLHSAEILAEIARILRPGGCLFLKEPVETAVDNNSKVKTASKLCSALTLSGLVEVKELQREPLTPEEVQSVREHLGHESDNLLFVQITGKKPNFEVGSSRQLKLSITKKSSPSVKPAVDPAAAKLWTLSANDMEDDSMDLIDSDELLDPEDLKKPDPASLRAASCGEGKKRKACKNCTCGLAEELEKEKSREQMSSQPKSACGNCYLGDAFRCASCPYLGMPAFKPGEKVLLSDSNLHDA	soluble
MGSDKIHHHHHHMIGLRPEDDRVYDVIVVGAGHAGIEAALAAARMGFRVLVLTVNPDTVGWAPCNPAIGGPAKGVVVREIDALGGEMAKTTDETMINVRMLNVSKGPAVRALRAQIDKISYSRTMKRKLETNPNIVLRHGIVERILTEKGRVKGVVDNYGIDYLGKAVIVTTGTFLRGKIFIGRSTFPAGRMGEFPATKLTESLIELGFEVGRFKTGTPARVLKRSINFSVMERQDTSDEPLAFSFFDEPRVLPKDYPCWLTRTNPETHSIIKQYLEFSPLYGTVKLIEGIGPRYCPSIEDKVVKFKDKESHQVFVEPEGRDTEEYYLNGLSTSLPYEAQIKMIRSVKGLENAIVTRPAYAIEYDYIDPRQLYPTLESKLVENLYFAGQVNGTSGYEEAAGQGIIAGINAALKLRGEPPLILKRSEAYIGVLIDDLVTKGVDEPYRLLTSRAEYRLLLRHDNAHLRLAKYGYRVGLIPKWFYEKVLSLERRINEEIERLKKVIVKPSDRVNDLLTSLRTSPLKEPVSFYQLLKRPQLSYSALKFLDPNPIDDPEVVEQVEINVKYEGYIQKMFEEVAVFEKYENYEIPHDLDYDAVPNLSTEARDKLKKIRPRSIGQAMRIPGINPSDISNLIIYLDRKKQ	not soluble

From the DeepSol protein solubility set
